Test results published in article PMC3497071.
No constants are given. Whether binding was seen depends on the method and setting. For part of these data: In cells and extracts the contact can be indirect. Some binding calls cover weakened binding; strength is not graded here.

By UniProt entry, the sequences of proteins in these tests, tags left out.
UniProt P05429: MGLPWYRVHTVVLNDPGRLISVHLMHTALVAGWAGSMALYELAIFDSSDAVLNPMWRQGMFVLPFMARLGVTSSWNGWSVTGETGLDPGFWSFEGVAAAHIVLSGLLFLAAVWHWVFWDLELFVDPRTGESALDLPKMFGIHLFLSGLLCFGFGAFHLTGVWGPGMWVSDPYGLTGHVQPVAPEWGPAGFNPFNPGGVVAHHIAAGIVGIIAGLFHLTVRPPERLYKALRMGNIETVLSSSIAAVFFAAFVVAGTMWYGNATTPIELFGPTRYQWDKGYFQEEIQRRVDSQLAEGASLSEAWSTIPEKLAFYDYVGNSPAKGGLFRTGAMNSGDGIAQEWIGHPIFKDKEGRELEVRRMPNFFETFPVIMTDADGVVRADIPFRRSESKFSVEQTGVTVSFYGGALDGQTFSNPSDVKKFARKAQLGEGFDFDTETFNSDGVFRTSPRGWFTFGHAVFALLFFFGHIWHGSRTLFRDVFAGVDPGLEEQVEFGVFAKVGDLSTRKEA

Tests used:
[1] = biological target: RC47 assembly complex (PSII core complex lacking CP43), untagged (Synechocystis sp. PCC 6803 (endogenous)) (UniProt P05429); test: native gel or EMSA; two-dimensional gel: 4-14% CN-PAGE, then 12-20% SDS-PAGE, of solubilized thylakoid membranes (4 µg Chl a) of radiolabelled ΔCP43 cells; Sypro Orange stain, immunoblots, autoradiogram
[2] = biological target: His-tagged CP47 (CP47 apopolypeptide with a C-terminal His6-tag) (Synechocystis sp. PCC 6803) (UniProt P05429); test: pull-down; RC47-His isolated by the His6-tag of CP47: Ni2+-affinity chromatography of detergent-solubilized thylakoid membranes of ΔCP43/CP47-His, then DEAE anion exchange (KPN buffer, 0.04% β-DM, MgSO4 gradient 5-200 mM); SDS-PAGE and immunoblots
[3] = biological target: His-tagged CP47 (CP47 apopolypeptide with a C-terminal His6-tag) (Synechocystis sp. PCC 6803), P05429; test: as above; details: remark: other sources report otherwise

B1: Psb28 (Sll1398) (protein, UniProt Q55356 1-112)
chain: MAEIQFSKGVAETVVPEVRLSKSKNGQSGMAKFYFLEPTILAKESTDDITGMYLIDDEGEIITREVKGKFINGRPTAIEATVILNSQPEWDRFMRFMERYGAENGLGFSKSE
binding [1]: binds | binding [2]: binds

B2: PsbO, P10549 29-274 (protein)
chain: VDKSQLTYDDIVNTGLANVCPEISSFTRGTIEVEPNTKYFVSDFCMEPQEYFVKEEPVNKRQKAEYVKGKVLTRQTTSLEQIRGSIAVGADGTLTFKEKDGIDFQPITVLLPGGEEVPFFFTVKNFTGTTEPGFTSINSSTDFVGDFNVPSYRGAGFLDPKARGLYTGYDNAVALPSAADKFRTNKKETPLGKGTLSLQVTQVDGSTGEIAGIFESEQPSDTDLGAKEPLDVKVRGIFYGRVDTDV
binding [3]: no binding
